Measured values: patent US5258492A, “LHRH analogues with cytotoxic moieties at the sixth position” (The Administrators of the Tulane Educational Fund, priority 1991, dated 1993)
At least one peptide structure holds a part that was inferred or is arguable (an end, a ring closure or a residue).

Columns and labels:
[1] = system: membrane receptors of human prostate cancer; assay: Affinity to membrane receptors of human prostate cancer using 125I-labeled [D-Trp6]LHRH; settings: first receptor class (high affinity binding sites)
Procedure: (§1) This is determined by using labelled LHRH and [D-Trp^6 ]LHRH. The assay is carried out similarly to that described by T. Kadar et al., Proc. Natl. Acad. Sci. USA, 85, 890-894 (1988).
(§2) *Affinity constants of the peptides for the first receptor class, Ka
(§3) (i.e. for high affinity binding sites) and for the second receptor class,
(§4) Ka2 (i.e. for low affinity binding sites) of human prostate cancer
(§5) and rat Dunning tumor, respectively, as determined by using ^125
(§6) Ilabeled [DTrp^6 ]LHRH.

[2] = target: T1, membrane receptors of human breast cancer cells (Homo sapiens, UniProt P30968); assay: Binding affinity for membrane receptors of human breast cancer cells using 125I-labeled [D-Trp6]LHRH; settings: Table 1, high affinity binding sites
T1 construct: endogenous in cells; host or cells: human breast cancer cells (membranes)
T1 sequence (P30968 1-328): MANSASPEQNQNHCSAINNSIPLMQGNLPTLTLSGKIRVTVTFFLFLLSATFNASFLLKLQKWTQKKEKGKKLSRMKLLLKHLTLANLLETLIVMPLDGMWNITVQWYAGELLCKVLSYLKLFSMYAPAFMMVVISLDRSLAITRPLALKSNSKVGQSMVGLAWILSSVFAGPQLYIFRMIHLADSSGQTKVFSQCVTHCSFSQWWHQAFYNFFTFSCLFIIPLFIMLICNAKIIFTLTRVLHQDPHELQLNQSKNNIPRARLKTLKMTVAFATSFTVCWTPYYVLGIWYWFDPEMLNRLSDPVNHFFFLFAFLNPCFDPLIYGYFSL
Procedure: as §1
(§7) Table 2 presents the antiovulatory activity of the claimed compounds having LHRH-inhibiting properties. The inhibitory action was determined in vivo, in 4-day cycling rats as described [A. Corbin and C. W. Beattie, Endocr. Res. Commun., 2, 1-23 (1975)]. Affinities of the claimed compounds to membrane receptors of rat pituitary and human breast cancer cells are also given in Tables 1 and 2 as determined by using [^125 I,D-Trp^6 ]LHRH.
(§8) **Affinity constants of the peptides for the first receptor class (i.e.
(§9) for high affinity binding sites) of pituitary of male rats and human
(§10) breast cancer cells, respectively, as determined by using ^125
as §6
(§11) breast cancer cells, respectively, were determined by using ^125

[3] = system: membrane receptors of rat Dunning tumor; assay: Affinity to membrane receptors of rat Dunning tumor using 125I-labeled [D-Trp6]LHRH; settings: second receptor class (low affinity binding sites)
Procedure: as §1, §2, §3, §4, §5, §6

[4] = target: T2, membrane receptors of pituitary of male rats (Rattus norvegicus, UniProt P30969); assay: Binding affinity for membrane receptors of rat pituitary using 125I-labeled [D-Trp6]LHRH; settings: Table 1, high affinity binding sites
T2 construct: from tissue; host or cells: pituitary of male rats (membranes)
T2 sequence (P30969 1-327): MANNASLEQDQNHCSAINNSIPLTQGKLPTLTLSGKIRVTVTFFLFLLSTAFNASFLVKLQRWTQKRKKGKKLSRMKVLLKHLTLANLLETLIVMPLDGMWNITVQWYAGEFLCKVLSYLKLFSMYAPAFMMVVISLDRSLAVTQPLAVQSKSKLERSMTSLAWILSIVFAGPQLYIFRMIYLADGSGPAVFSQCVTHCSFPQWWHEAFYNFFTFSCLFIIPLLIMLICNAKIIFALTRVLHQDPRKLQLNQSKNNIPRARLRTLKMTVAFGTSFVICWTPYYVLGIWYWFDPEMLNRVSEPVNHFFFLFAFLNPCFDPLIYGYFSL
Procedure: as §1, §7, §8, §9, §10, §6, §11

CC(C)C[C@H](NC(=O)[C@@H](Cc1ccc(N(CCCl)CCCl)cc1)NC(=O)[C@H](Cc1ccc(O)cc1)NC(=O)[C@H](CO)NC(=O)[C@H](Cc1c[nH]c2ccccc12)NC(=O)[C@H](Cc1c[nH]cn1)NC(=O)[C@@H]1CCC(=O)N1)C(=O)N[C@@H](CCCNC(=N)N)C(=O)N1CCC[C@H]1C(=O)NCC(N)=O [Example I, pGlu-His-Trp-Ser-Tyr-D-Mel-Leu-Arg-Pro-Gly-NH2]
Human prostate cancer Ka1 [1]: 9.66 nM⁻¹
Binding affinity, Ka1, for membrane receptors of cancer cells [2]: 6.244 nM⁻¹
Dunning tumor Ka2 [3]: 5.73 M⁻¹
Binding affinity, Ka1, for membrane receptors of pituitary [4]: 10.697 nM⁻¹
